Test results published in patent US20230265185A1 (NATIONAL RESEARCH COUNCIL OF CANADA, published 2023).
These are yes or no findings as the source states them, for the method shown.

Sequences of proteins named here, by UniProt entry; tags and fusion partners are left off. Residues count along the entry.
hCD22 fragment Bin 6, IVR6 (aa476-575), displayed on yeast cells (P20273, residues 495-594): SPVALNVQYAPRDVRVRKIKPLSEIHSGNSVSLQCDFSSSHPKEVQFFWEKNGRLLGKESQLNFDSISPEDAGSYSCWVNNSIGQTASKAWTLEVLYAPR
hCD22 fragment Bin 7, IVR7 (aa561-668), displayed on yeast cells (P20273, residues 580-687): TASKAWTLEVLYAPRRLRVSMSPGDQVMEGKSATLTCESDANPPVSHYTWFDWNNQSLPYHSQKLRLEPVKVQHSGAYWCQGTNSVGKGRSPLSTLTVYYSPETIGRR

B1: hCD221ug-13 (VHH)
VHH: QVQLVESGGGLVQAGDSLRLSCAGSGGSFSSVTMAWFRQAPGKDREFVAAITWSSPSTYYADSVKGRFTISRDNAKNTVYLQMNSLKPEDTAVYYCAGGRTGRGTSADTDEYNYWGQGTQVTVSS
modifications: single biotin at the VHH C-terminal (biotinylation signal sequence)
notes: llama VHH, expressed in E. coli TG1, IMAC purified, monomeric SEC fraction; also called VHH # 21; 1-hCD22 1ug-13
B2: hCD22pas-24 (VHH)
VHH: QVQLVESGGGLVQAGGSLRLSCSASGITSSINSMGWHRQAPGKQRELVASIGRGGSGSTKYADSGKGRFLISRDNNKNILFLEMNSLKPEDTADYYCLEVTTDLSSYWGRGTQVTVSS
modifications: single biotin at the VHH C-terminal (biotinylation signal sequence)
notes: llama VHH, expressed in E. coli TG1, IMAC purified, monomeric SEC fraction; also called VHH # 26; 8-hCD22 pas-24
B3: hCD221ug-80 (VHH)
VHH: QVQLVESGGGLVQPGGSLRLSCTFSGFTLDYYVMVWFRQAPGKEREAVSCITSDGVTYYADSVKGRFTISRDNAKNTVYLQMNRVKPEDTAVYYCAVDKPFYDGGIQYTCPVDFDSWGQGAQVTVSS
modifications: single biotin at the VHH C-terminal (biotinylation signal sequence)
notes: llama VHH, expressed in E. coli TG1, IMAC purified, monomeric SEC fraction; also called VHH # 1; 2-hCD22 1ug-80

Assays:
[1] = molecular target: hCD22 fragment Bin 7, IVR7 (aa561-668), displayed on yeast cells (human) (UniProt P20273); assay: yeast display cell ELISA
[2] = molecular target: hCD22 fragment Bin 6, IVR6 (aa476-575), displayed on yeast cells (human) (UniProt P20273); assay: yeast display cell ELISA

| Binder | binding [1] | binding [2] |
| --- | --- | --- |
| B1 | no binding (tested: OD450 not above 0.25; sdAb 250 nM) | – |
| B2 | – | no binding (tested: OD450 not above 0.25; sdAb 250 nM) |
| B3 | no binding (tested: OD450 not above 0.25; sdAb 250 nM) | – |
